These are yes or no findings as the source states them, for the method shown. Some binding calls cover weakened binding; strength is not graded here.
T1: N-terminal 32 amino acids of huC16orf54 coupled to biotin (human)
T1 sequence (peptide, biotin at the C-terminus): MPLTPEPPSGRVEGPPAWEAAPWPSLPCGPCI

B1: R29-67-7A (antibody, V domains shown)
VH: DVQLQESGPGLVKPSQSLSLTCTVTGYSITSDYAWNWIRQFPGNKLEWMGYINYSGRTRYNPSLNSRISLTRDTSTNQFFLQLNSVTTEDTATYYCARENYDYEFYAMDYWGQGTSVTVSS
VL: DIVMSQSPSSLAVSVGEKVTMSCKSSQNLLYSSNQKNYLAWYQQKPGQSPKLLIYWASTRESGVPDRFTGSGSGTDFTLTISSVKAEDLAVYYCQQYYIYRTFGGGTKLEIK
notes: Murine monoclonal IgG2a from a hybridoma
B2: R29-7-1C (antibody, V domains shown)
VH: DVQLQESGPGLVKPSQSLSLTCTVTGYSITSDYAWNWIRQFPGNKLEWMGYISYSGSIRYNPSLKSRISITRDTSKNQFFLQLNSVTTEDTATYYCAREKYDNYYYAMDYWGQGTSVTVSS
VL: DIVMSQSPSSLAVSVGEKVTLSCKSSQNLLYSTNQKNYLAWYQQKPGQSPKLLIYWASTRESGVPDRFTGSGSGTDFTLTISSVKAEDLAVYYCQQYYSYRTFGGGTKLEIK
notes: as for B1
B3: R29-7-2A (antibody, V domains shown)
VH: EVQLVESGGGLIQPKGSLKLSCVASGFSFNTHAMNWVRQAPGKGLEWVARIRSKSNNYARYYADSVKDRFTISRDDSQSILYLQMNNLKTEDTAMYYCVKQGDGGFAYWGQGTLVTVSA
VL: DIVMSQSPSSLAVSVGEKVTMSCKSSQSLLYSSNQKNYLAWYQQRPGQSPKLLIYWASARESGVPDRFTGSGSGTDFTLTISSVKAEDLAVYYCQQYYSYPPTFGAGTKVELK
notes: Murine monoclonal IgG2b from a hybridoma

What follows are binders tested against T1, N-terminal 32 amino acids of huC16orf54 coupled to biotin (human) (assay: binding experiments of Example 5 (biolayer interferometry)).

Q: Which binding does the source give for B1 here?
A: binds

Q: With B2 as the binder, how does the binding read?
A: binds

Q: How did the binding turn out when B3 was run?
A: binds

Source: US20150231240A1, “ANTI-C16ORF54 ANTIBODIES AND METHODS OF USE THEREOF” (priority 2012, published 2015)
